The text below walks through data of paper PMC9833660.

By UniProt entry, the sequences of proteins in these tests, tags left out.
UniProt Q9SUM3: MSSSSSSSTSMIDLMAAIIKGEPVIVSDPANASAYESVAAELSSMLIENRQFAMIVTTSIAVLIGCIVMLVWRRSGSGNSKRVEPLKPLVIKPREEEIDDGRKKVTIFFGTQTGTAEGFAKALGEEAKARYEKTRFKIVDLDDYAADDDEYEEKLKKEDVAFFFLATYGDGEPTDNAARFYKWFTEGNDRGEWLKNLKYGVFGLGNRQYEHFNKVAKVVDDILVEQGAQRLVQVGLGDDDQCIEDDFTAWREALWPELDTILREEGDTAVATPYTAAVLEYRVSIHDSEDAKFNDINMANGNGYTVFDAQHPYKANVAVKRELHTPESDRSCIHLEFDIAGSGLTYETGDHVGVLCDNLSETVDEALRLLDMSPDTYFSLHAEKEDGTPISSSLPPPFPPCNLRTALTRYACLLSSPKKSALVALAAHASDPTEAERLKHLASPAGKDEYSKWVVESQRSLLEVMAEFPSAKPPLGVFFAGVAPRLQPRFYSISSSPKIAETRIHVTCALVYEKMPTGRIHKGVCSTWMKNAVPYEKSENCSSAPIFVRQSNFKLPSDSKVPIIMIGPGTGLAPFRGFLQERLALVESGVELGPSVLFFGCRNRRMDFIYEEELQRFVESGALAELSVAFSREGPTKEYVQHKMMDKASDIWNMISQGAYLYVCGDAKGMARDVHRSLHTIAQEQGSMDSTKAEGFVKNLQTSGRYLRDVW

Experiment [1] concerns the target T1, Arabidopsis thaliana NADH-cytochrome b5 reductase 1 (CBR1) (Arabidopsis thaliana) (UniProt Q9ZNT1).
T1 sequence: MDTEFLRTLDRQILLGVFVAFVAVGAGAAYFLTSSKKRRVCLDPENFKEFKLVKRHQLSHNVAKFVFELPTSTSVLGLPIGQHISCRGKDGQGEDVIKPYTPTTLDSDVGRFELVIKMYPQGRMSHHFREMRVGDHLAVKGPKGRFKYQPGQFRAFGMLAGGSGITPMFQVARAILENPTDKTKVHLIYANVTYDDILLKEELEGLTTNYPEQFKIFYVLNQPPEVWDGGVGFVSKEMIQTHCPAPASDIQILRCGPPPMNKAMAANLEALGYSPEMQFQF
Kind of experiment: two-hybrid; mating-based split-ubiquitin membrane yeast two-hybrid; CBR1, ATR1 and ATR2 as baits (pMetYC, Cub), CB5D as prey (pNX32, NubG); diploid cells diluted 10^-1 to 10^-3 on selective SD/-Trp, -Leu, -Ade, -His, -Ura, -Met medium, 28°C, 3 days.

Experiment [2] deals with ARABIDOPSIS THALIANA P450-REDUCTASE 2 (ATR2), NADPH-cytochrome P450 reductase (Arabidopsis thaliana) (UniProt Q9SUM3). The experiment is described as above.

These are yes or no findings as the source states them, for the method shown. Some results given as binding are weak or reduced against the parent protein; the word gives no strength.

“Arabidopsis thaliana cytochrome b5 isoform D (AtCB5D) (from UniProt Q9ZWT2 1-140)”: the binding entry in experiment [1] and in experiment [2] was “binds” each time.
